Data reported in the supplement of paper PMC6078165.
The reference is the same well before dosing, and untreated signal decays as well.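 Fibroblast labels denote human fibroblasts, mainly primary ones from uterus (C12385, HUF), lung (H6013), bone (Hs27A), adrenal (HADF) and skin (WS1), plus mammary HMF and breast cancer-associated Hs343T. Cancer cells are basal-like or mesenchymal-like triple-negative breast cancer lines. A hit is a response shift exceeding 3x replicate standard deviation. The tissue of the other fibroblasts is not given here.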

Tested on: BT20
Experiment: relative JC-1 red fluorescence (viability) vs pre-drug, coculture with fibroblast (fraction); higher = more viable cancer cells
Protocol: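 JC-1 labelled TNBC cells cocultured 1:1 (1,500 cells each) with CellTrace Violet stained primary or stromal fibroblasts in 384-well plates in FluoroBrite medium, treated with one of 42 anticancer drugs at 0.1, 1, 10 or 100 uM. JC-1 red fluorescence (mitochondrial integrity in cancer cells only) was read by plate reader every 8 h for 72 h. Values are normalised to each well's pre-drug value. The stock of one drug was tenfold lower, so its dose labels may be too high.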

N#Cc1ccc(C(c2ccc(C#N)cc2)n2cncn2)cc1 [Letrozole]
relative JC-1 red fluorescence
Details	8 h	16 h	24 h	32 h	40 h	48 h	56 h	64 h	72 h
0.1 µM, coculture fibroblast: C12385	0.923	0.816	0.7745	0.709	0.648	0.613	0.582	0.561	0.545
0.1 µM, coculture fibroblast: H6013	0.9168	0.855	0.797	0.76	0.709	0.679	0.671	0.646	0.623
0.1 µM, coculture fibroblast: H6019	0.844	0.787	0.768	0.713	0.67	0.65	0.621	0.6	0.586
0.1 µM, coculture fibroblast: H6076	0.976	0.881	0.803	0.785	0.752	0.732	0.721	0.716	0.697
0.1 µM, coculture fibroblast: H6231	0.834	0.926	0.7869	0.722	0.684	0.6304	0.5945	0.5639	0.539
0.1 µM, coculture fibroblast: HADF	0.937	0.887	0.834	0.797	0.759	0.721	0.7	0.694	0.658
0.1 µM, coculture fibroblast: HCFa	0.91	0.867	0.818	0.759	0.715	0.674	0.644	0.614	0.582
0.1 µM, coculture fibroblast: HCPF	0.9926	0.877	0.795	0.737	0.685	0.643	0.602	0.592	0.558
0.1 µM, coculture fibroblast: HHSteC	0.941	0.85	0.817	0.735	0.68	0.639	0.612	0.585	0.564
0.1 µM, coculture fibroblast: HMF	0.9	0.882	0.757	0.6938	0.6422	0.588	0.543	0.508	0.472
0.1 µM, coculture fibroblast: HPFa	0.937	0.811	0.797	0.702	0.67	0.62	0.592	0.554	0.5
0.1 µM, coculture fibroblast: HUF	0.925	0.802	0.767	0.682	0.616	0.563	0.534	0.512	0.492
0.1 µM, coculture fibroblast: Hs5	0.893	0.916	0.824	0.764	0.706	0.657	0.612	0.576	0.54
0.1 µM, coculture fibroblast: Hs27A	0.807	0.786	0.882	0.887	0.8385	0.812	0.787	0.751	0.701
0.1 µM, coculture fibroblast: Hs343T	0.918	0.875	0.743	0.6789	0.615	0.57	0.529	0.504	0.475
0.1 µM, coculture fibroblast: WS1	0.868	0.762	0.716	0.65	0.587	0.555	0.527	0.505	0.491
1 µM, coculture fibroblast: C12385	0.9	0.794	0.743	0.687	0.627	0.59	0.552	0.534	0.519
1 µM, coculture fibroblast: H6013	0.9485	0.866	0.82682	0.7867	0.73246	0.711	0.6992	0.6831	0.6637
1 µM, coculture fibroblast: H6019	0.869	0.816	0.816	0.774	0.741	0.726	0.696	0.68	0.661
1 µM, coculture fibroblast: H6076	0.875	0.906	0.837	0.791	0.752	0.729	0.702	0.7	0.68
1 µM, coculture fibroblast: H6231	0.872	0.906	0.801	0.727	0.662	0.6107	0.577	0.55	0.504
1 µM, coculture fibroblast: HADF	0.9953	0.913	0.894	0.854	0.821	0.787	0.77	0.762	0.735
1 µM, coculture fibroblast: HCFa	0.961	0.914	0.913	0.875	0.839	0.807	0.794	0.787	0.77
1 µM, coculture fibroblast: HCPF	0.84	0.8943	0.8138	0.765	0.718	0.672	0.622	0.602	0.553
1 µM, coculture fibroblast: HHSteC	0.92	0.834	0.813	0.735	0.67941	0.6461	0.6219	0.6027	0.57052
1 µM, coculture fibroblast: HMF	0.866	0.887	0.782	0.733	0.691	0.645	0.607	0.573	0.545
1 µM, coculture fibroblast: HPFa	0.9458	0.851	0.838	0.747	0.714	0.666	0.64	0.606	0.548
1 µM, coculture fibroblast: HUF	0.901	0.7677	0.746	0.671	0.615	0.574	0.557	0.537	0.526
1 µM, coculture fibroblast: Hs5	0.949	0.8944	0.83	0.794	0.756	0.718	0.688	0.658	0.622
1 µM, coculture fibroblast: Hs27A	0.802	0.907	0.896	0.877	0.84	0.826	0.805	0.78	0.729
1 µM, coculture fibroblast: Hs343T	0.896	0.8563	0.715	0.64	0.569	0.509	0.439	0.413	0.372
1 µM, coculture fibroblast: WS1	0.8612	0.7683	0.731	0.659	0.599	0.579	0.548	0.521	0.513
